No constants are given. Whether binding was seen depends on the method and setting. In cells and extracts the contact can be indirect. These calls come from enrichment with a bait or labelling near it, and not all partners need be listed. Blank lines part the entries; values can stand above or below the binder they belong to.
Target: T1, BRPF1 bromodomain N651AzF (UniProt P55201)
T1 sequence (chain, 4-azido-L-phenylalanine (AzF) at 651): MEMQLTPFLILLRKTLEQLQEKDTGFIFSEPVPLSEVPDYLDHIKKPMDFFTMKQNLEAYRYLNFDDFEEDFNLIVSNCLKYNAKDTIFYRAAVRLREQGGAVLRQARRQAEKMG
Test: cross-linking + affinity purification with mass spectrometry; ~1 mg lysate of trichostatin A treated HEK293T cells with 50 μM BRPF1-N651AzF; 365 nm UV; Ni-NTA pull-down, washes with 400 mM KCl and Triton X-100; in-solution trypsin digestion, LC-MS/MS; +UV against -UV; only the target purified

binding: binds
B1: ACSS1 (enzyme, UniProt Q9NUB1 38-689)
chain: ASGPSGSAPAVAAAAAQPGSYPALSAQAAREPAAFWGPLARDTLVWDTPYHTVWDCDFSTGKIGWFLGGQLNVSVNCLDQHVRKSPESVALIWERDEPGTEVRITYRELLETTCRLANTLKRHGVHRGDRVAIYMPVSPLAVAAMLACARIGAVHTVIFAGFSAESLAGRINDAKCKVVITFNQGLRGGRVVELKKIVDEAVKHCPTVQHVLVAHRTDNKVHMGDLDVPLEQEMAKEDPVCAPESMGSEDMLFMLYTSGSTGMPKGIVHTQAGYLLYAALTHKLVFDHQPGDIFGCVADIGWITGHSYVVYGPLCNGATSVLFESTPVYPNAGRYWETVERLKINQFYGAPTAVRLLLKYGDAWVKKYDRSSLRTLGSVGEPINCEAWEWLHRVVGDSRCTLVDTWWQTETGGICIAPRPSEEGAEILPAMAMRPFFGIVPVLMDEKGSVVEGSNVSGALCISQAWPGMARTIYGDHQRFVDAYFKAYPGYYFTGDGAYRTEGGYYQITGRMDDVINISGHRLGTAEIEDAIADHPAVPESAVIGYPHDIKGEAAFAFIVVKDSAGDSDVVVQELKSMVATKIAKYAVPDEILVVKRLPKTRSGKVMRRLLRKIITSEAQELGDTTTLEDPSIIAEILSVYQKCKDKQAAAK

binding: binds
B2: interleukin enhancer-binding factor 3 (ILF3), endogenous (protein, UniProt Q12906 1-894)
chain: MRPMRIFVNDDRHVMAKHSSVYPTQEELEAVQNMVSHTERALKAVSDWIDEQEKGSSEQAESDNMDVPPEDDSKEGAGEQKTEHMTRTLRGVMRVGLVAKGLLLKGDLDLELVLLCKEKPTTALLDKVADNLAIQLAAVTEDKYEILQSVDDAAIVIKNTKEPPLSLTIHLTSPVVREEMEKVLAGETLSVNDPPDVLDRQKCLAALASLRHAKWFQARANGLKSCVIVIRVLRDLCTRVPTWGPLRGWPLELLCEKSIGTANRPMGAGEALRRVLECLASGIVMPDGSGIYDPCEKEATDAIGHLDRQQREDITQSAQHALRLAAFGQLHKVLGMDPLPSKMPKKPKNENPVDYTVQIPPSTTYAITPMKRPMEEDGEEKSPSKKKKKIQKKEEKAEPPQAMNALMRLNQLKPGLQYKLVSQTGPVHAPIFTMSVEVDGNSFEASGPSKKTAKLHVAVKVLQDMGLPTGAEGRDSSKGEDSAEETEAKPAVVAPAPVVEAVSTPSAAFPSDATAEQGPILTKHGKNPVMELNEKRRGLKYELISETGGSHDKRFVMEVEVDGQKFQGAGSNKKVAKAYAALAALEKLFPDTPLALDANKKKRAPVPVRGGPKFAAKPHNPGFGMGGPMHNEVPPPPNLRGRGRGGSIRGRGRGRGFGGANHGGYMNAGAGYGSYGYGGNSATAGYSQFYSNGGHSGNASGGGGGGGGGSSGYGSYYQGDNYNSPVPPKHAGKKQPHGGQQKPSYGSGYQSHQGQQQSYNQSPYSNYGPPQGKQKGYNHGQGSYSYSNSYNSPGGGGGSDYNYESKFNYSGSGGRSGGNSYGSGGASYNPGSHGGYGGGSGGGSSYQGKQGGYSQSNYNSPGSGQNYSGPPSSYQSSQGGYGRNADHSMNYQYR
